In patent publication US6989256:
Results are given in words; binding and its absence hold for the method and conditions named. In cells and extracts the contact can be indirect. Some entries that bind do so weakly or less than the wild type. Where a sequence is shown, tags or fusion partners need not be part of it.

By UniProt entry, the sequences of proteins in these tests, tags left out.
UniProt P05453: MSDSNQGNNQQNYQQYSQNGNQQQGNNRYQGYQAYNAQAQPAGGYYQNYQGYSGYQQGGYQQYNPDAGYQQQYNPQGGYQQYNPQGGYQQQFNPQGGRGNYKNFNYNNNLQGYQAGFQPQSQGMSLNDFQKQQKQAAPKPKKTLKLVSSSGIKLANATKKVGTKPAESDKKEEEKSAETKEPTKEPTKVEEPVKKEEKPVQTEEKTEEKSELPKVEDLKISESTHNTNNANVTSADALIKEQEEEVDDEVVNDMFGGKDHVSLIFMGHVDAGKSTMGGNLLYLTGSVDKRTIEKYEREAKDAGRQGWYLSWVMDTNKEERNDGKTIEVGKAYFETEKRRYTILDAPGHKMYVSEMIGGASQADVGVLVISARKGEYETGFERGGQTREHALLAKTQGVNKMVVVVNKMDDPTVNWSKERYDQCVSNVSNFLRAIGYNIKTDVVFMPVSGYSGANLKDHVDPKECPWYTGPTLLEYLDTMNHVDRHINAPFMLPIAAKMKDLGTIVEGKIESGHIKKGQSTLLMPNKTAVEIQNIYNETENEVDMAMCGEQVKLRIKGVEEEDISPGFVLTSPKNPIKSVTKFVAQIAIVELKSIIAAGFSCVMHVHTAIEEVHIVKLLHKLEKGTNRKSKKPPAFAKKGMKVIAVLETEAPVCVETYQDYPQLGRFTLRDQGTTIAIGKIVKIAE

Columns and labels:
[1] = target: GST-eRF3 (yeast (S. cerevisiae)) (UniProt P05453); assay: GST pull-down from yeast cytoplasmic extract, anti-FLAG immunoblot (discussion of Example 1)
[2] = target: GST-eRF3 (yeast (S. cerevisiae)) (UniProt P05453); assay: GST pull-down from yeast cytoplasmic extract, anti-FLAG immunoblot
[3] = target: GST-eRF3 (yeast (S. cerevisiae)) (UniProt P05453); assay: GST pull-down from yeast cytoplasmic extract, anti-FLAG immunoblot (figure legend)

Measured: binding

B1: FLAG epitope-tagged Mtt1p (enzyme, yeast (S. cerevisiae), UniProt P32644 1-1121, looked up, not shown: small tags and cut ends)
chain: MDFQCRTCSQAYDAEQMMKHLSSTRHKTVFDTSNDEDICCEECQDKNIHQLQIIRFGGEDMVLLCNSCFRKEYSETERPSTSYSLQNGSILKFWEKYVKVRECCCDECGEESNLNANRNGEVLCDKCLPKSNRAKDFVSEKSGRFLYIYLGLNETQNSTRKPRKKGGRRVGRGKKGRKGAKIKKEKKETFEAKISRIAYEVKKENSTIQSSSSSNLRNFKGFKAVESDPVVAAKVSKSETSRSNPGPSNRNKGKGNKANHKKNSGNGIGKEKERKTNIRNNVRNSQPIPEDRKNTNSHVTTNSGGKGKNESVDKHQLPQPKALNGNGSGSTNTTGLKKGKKDHAGQKTKGNDKTGNKNPREAKLNSAGRKNALGKKSNNQPNKGTSRWTIGSDTESSREPSISPNENTTSITKSRNRNKKASKPTLNEKSKTTTMPKKLETKNQEKNNGKTKDGKLIYEEGEPLTRYNTFKSTLSYPDLNTYLNDYSFALFLEQKLENEFVQNFNILWPRNEKDTAFIINVEKNNNSELEKLLPANLLALGRPAFNERQPFFFCTQDEQKVWYIFIKELSIQRGKYVLLVELFSWNNLSLPTKNGSSQFKLLPTSAQTSRILFAMTRITNPKFIDLLLGQKPIKEIYFDNRLKFSSDKLNRSQKTAVEHVLNNSITILQGPPGTGKTSTIEEIIIQVIERFHAFPILCVAASNIAIDNIAEKIMENRPQIKILRILSKKKEQQYSDDHPLGEICLHNIVYKNLSPDMQVVANKTRRGEMISKSEDTKFYKEKNRVTNKVVSQSQIIFTTNIAAGGRELKVIKECPVVIMDEATQSSEASTLVPLSLPGIRNFVFVGDEKQLSSFSNIPQLETSLFERVLSNGTYKNPLMLDTQYRMHPKISEFPIKKIYNGELKDGVTDEQKAWPGVQHPLFFYQCDLGPESRVRSTQRDIVGFTYENKHECVEIVKIIQILMLDKKVPLEEIGVITPYSAQRDLLSDILTKNVVINPKQISMQQEYDEIELFNAAGSQGTAGSLQNNVINIINGLHVATVDSFQGHEKSFIIFSCVRNNTENKIGFLRDKRRLNVALTRAKHGLIVVGNKNVLRKGDPLWKDYITYLEEQEVIFTDLTAY
binds: all assays above
